The record followed here is paper PMC9239217.

Numbering of substitutions follows the chain as printed. Construct, isoform or probe ends are uncertain for at least one entry. For part of these data: Negatives hold for the conditions tested. Protein sequences can lack the tags named with them. For part of these data: The direction of at least one scale is not stated here.

What all share (assay): fluorescence polarization
The target of data set [1] is T1, DndE (Natronorubrum bangense JCM10635) (UniProt L9WJT3).
T1 sequence (looked up): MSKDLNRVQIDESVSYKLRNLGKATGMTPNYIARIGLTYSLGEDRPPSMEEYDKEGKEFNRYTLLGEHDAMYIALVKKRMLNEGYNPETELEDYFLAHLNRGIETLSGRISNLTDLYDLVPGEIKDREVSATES
As to conditions: 10 nM fluorescein-labeled DNA, 100 mM NaCl, 50 mM Tris-HCl pH 8.0, room temperature, 200 uL, recombinant protein, residues 1-134, protein details: N-terminal His (pET28a).

Data set [2] deals with T2, DndE G26K (Natronorubrum bangense JCM10635) (UniProt L9WJT3).
T2 sequence (looked up): T1 sequence (looked up) with G26K
The conditions noted are these: nick between G and A of GATC; 10 nM fluorescein-labeled DNA, 100 mM NaCl, 50 mM Tris-HCl pH 8.0, room temperature, 200 uL; recombinant protein; residues 1-134; protein details: N-terminal His (pET28a); label: 5'-FAM on strand 1; folded or branched DNA.

For data set [3], the target named is T3, DndE R19A (Natronorubrum bangense JCM10635) (UniProt L9WJT3).
T3 sequence (looked up): T1 sequence (looked up) with R19A
As to conditions: nick between G and A of GATC; 10 nM fluorescein-labeled DNA, 100 mM NaCl, 50 mM Tris-HCl pH 8.0, room temperature, 200 uL; recombinant protein; residues 1-134; protein details: N-terminal His (pET28a); label: 5'-FAM on strand 1; folded or branched DNA.

Data set [4] deals with T4, DndE K23A (Natronorubrum bangense JCM10635) (UniProt L9WJT3).
T4 sequence (looked up): T1 sequence (looked up) with K23A
As to conditions: nick between G and A of GATC; 10 nM fluorescein-labeled DNA, 100 mM NaCl, 50 mM Tris-HCl pH 8.0, room temperature, 200 uL; recombinant protein; residues 1-134; protein details: N-terminal His (pET28a); label: 5'-FAM on strand 1; folded or branched DNA.

Data set [5] has as its target T5, DndE R34A (Natronorubrum bangense JCM10635) (UniProt L9WJT3).
T5 sequence (looked up): T1 sequence (looked up) with R34A
As to conditions: nick between G and A of GATC; 10 nM fluorescein-labeled DNA, 100 mM NaCl, 50 mM Tris-HCl pH 8.0, room temperature, 200 uL; recombinant protein; residues 1-134; protein details: N-terminal His (pET28a); label: 5'-FAM on strand 1; folded or branched DNA.

For TAGTGGATCCCCCG [ssDNA], the binding result in data set [1] (label: 5'-FAM, single-stranded DNA) is “no binding”.
By Kd is commonly meant the concentration at which binding is half-saturated. Regarding “GCGTAAGGTCCTCC (double strand) [dsDNAs, shuffled (E-D2-F/E-D2-R)]”, the Kd in data set [1] (label: 5'-FAM on strand 1) is 43.2 µM.
For the sequence “GCGGAGGACCTTACGCGGTTACCGCGTAA / GGTCCTCCGC [nDNAs, shuffled nicked (E-D4-F/E-D4-R)]”, the binding result in data set [1] (nick outside GATC, label: 5'-FAM on strand 1, folded or branched DNA) is “binds”.
As to “TAGTGGATCCCCCG (double strand) [dsDNA (E-D1-F/E-D1-R)]”, the dissociation constant Kd in data set [1] (label: 5'-FAM on strand 1) was found to be 48.4 µM.
“GCCGGGGGATCCACTAGGTTACCTAGTGG / ATCCCCCGGC [nDNA, nicked (E-D3-F/E-D3-R)]”: the Kd in data set [2] is 8.7 µM; in data set [1] (nick between G and A of GATC, label: 5'-FAM on strand 1, folded or branched DNA), 18.8 µM. Moreover, the results for the binding signal (fold decrease in affinity vs WT) in data set [3], in data set [4] and in data set [5] were 1.4, 2.2 and 3.3, respectively.
